PubChem BioAssay AID1259405 | NCATS – 2018

- Purpose: 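Silenced genes that increase secreted GFP made by CHO cells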 (primary screen)
- Cells: Chinese hamster CHO-K1 ovary cells with stable secreted eGFP expression
- Reagents: single siRNA against mouse genes, 0.8 pmol siRNA per well (2 µl of 400 nM stock)
- Timing: 3 days
- Measured: 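Per-well intracellular GFP measured by laser scanning cytometry, plus viability from ATP luminescence, each relative to plate median of non-targeting control wells, in %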
- Scale: GFP, % of control: higher = more GFP per well, higher productivity; viability (ATP), % of control: higher = more viable cells (more ATP)
- Rule for the call: 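a knock-down is called active if GFP reaches 120% or more of non-targeting control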
The whole screen tested about 50,000 reagents; below is a part drawn at random. About 4,000 of all reagents (8%) were called active. 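Mouse siRNA library applied to hamster cells; one well for each siRNA.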 Reagents against one gene are numbered here.

Depletion of Rhbdd3 #1 resulted in: GFP, % of control 89.9; viability (ATP), % of control 48; inactive.
Rhbdd3 #2 showed GFP, % of control 93.8; viability (ATP), % of control 96.2; inactive.
Against Rhbdd3 #3 the deposit lists GFP, % of control 177; viability (ATP), % of control 117; active.
For Coq8b #1 the deposit lists GFP, % of control 35.8; viability (ATP), % of control 40.6; inactive.
After knock-down of Coq8b #2, the record shows GFP, % of control 69.5; viability (ATP), % of control 79.4; inactive.
With knock-down of Coq8b #3, the screen gave GFP, % of control 68.6; viability (ATP), % of control 145; inactive.
Abhd18 #1 showed GFP, % of control 54.4; viability (ATP), % of control 96.5; inactive.
With knock-down of Abhd18 #2, the screen gave GFP, % of control 68.2; viability (ATP), % of control 52.4; inactive.
Against Abhd18 #3, the values are GFP, % of control 75.4; viability (ATP), % of control 104; inactive.
Creb1 #1 showed GFP, % of control 66.2; viability (ATP), % of control 54.2; inactive.
For Creb1 #2 the deposit lists GFP, % of control 73.2; viability (ATP), % of control 62.2; inactive.
Against Creb1 #3 the deposit lists GFP, % of control 106; viability (ATP), % of control 103; inactive.
Against Serpinb6a #1, the entry reads GFP, % of control 76.3; viability (ATP), % of control 88.7; inactive.
Serpinb6a #2 showed GFP, % of control 86.9; viability (ATP), % of control 85.4; inactive.
Serpinb6a #3 scored GFP, % of control 78.5; viability (ATP), % of control 75.1; inactive.
For Zfp451 #1, the entry reads GFP, % of control 154; viability (ATP), % of control 99.3; active.
Zfp451 #2 scored GFP, % of control 75.6; viability (ATP), % of control 55; inactive.
Silencing of Zfp451 #3 gave: GFP, % of control 79.2; viability (ATP), % of control 75.7; inactive.
For Popdc1 #1 the deposit lists GFP, % of control 75.5; viability (ATP), % of control 84.9; inactive.
Silencing of Popdc1 #2 resulted in: GFP, % of control 77.3; viability (ATP), % of control 88.3; inactive.
Popdc1 #3 scored GFP, % of control 100; viability (ATP), % of control 103; inactive.
Silencing of Zdhhc9 #1 gave: GFP, % of control 27.8; viability (ATP), % of control 20.7; inactive.
Zdhhc9 #2 gave GFP, % of control 172; viability (ATP), % of control 93.7; active.
Zdhhc9 #3 gave GFP, % of control 87.3; viability (ATP), % of control 106; inactive.
After knock-down of Numb #1, the record shows GFP, % of control 125; viability (ATP), % of control 65.6; active.
Against Numb #2, the values are GFP, % of control 44.6; viability (ATP), % of control 64.2; inactive.
After knock-down of Numb #3, the record shows GFP, % of control 81.3; viability (ATP), % of control 66.7; inactive.
